From the supplement of paper PMC12823440, “Inhibitors supercharge kinase turnover through native proteolytic circuits” (Nature, 2025)
Counter-ions that a name gives are not always drawn. This is one part of the list. The calls rarely recur for the same compound in another form.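 Kinases were expressed as nanoluciferase fusions in K562 cells and luminescence was read every 4 h between 2 and 18 h as percent of control, DMSO set to 100% and a positive control to 0%. A time point counts as decreased when the signal drops significantly (2 sigma). The hit call is the authors' own, does not follow from the count of time points alone, and its rule is not shown.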

Sequences of proteins named here, by UniProt entry; tags and fusion partners are left off. A change or cut given only in a name is not applied to a line headed by its entry.
UniProt Q9UM73: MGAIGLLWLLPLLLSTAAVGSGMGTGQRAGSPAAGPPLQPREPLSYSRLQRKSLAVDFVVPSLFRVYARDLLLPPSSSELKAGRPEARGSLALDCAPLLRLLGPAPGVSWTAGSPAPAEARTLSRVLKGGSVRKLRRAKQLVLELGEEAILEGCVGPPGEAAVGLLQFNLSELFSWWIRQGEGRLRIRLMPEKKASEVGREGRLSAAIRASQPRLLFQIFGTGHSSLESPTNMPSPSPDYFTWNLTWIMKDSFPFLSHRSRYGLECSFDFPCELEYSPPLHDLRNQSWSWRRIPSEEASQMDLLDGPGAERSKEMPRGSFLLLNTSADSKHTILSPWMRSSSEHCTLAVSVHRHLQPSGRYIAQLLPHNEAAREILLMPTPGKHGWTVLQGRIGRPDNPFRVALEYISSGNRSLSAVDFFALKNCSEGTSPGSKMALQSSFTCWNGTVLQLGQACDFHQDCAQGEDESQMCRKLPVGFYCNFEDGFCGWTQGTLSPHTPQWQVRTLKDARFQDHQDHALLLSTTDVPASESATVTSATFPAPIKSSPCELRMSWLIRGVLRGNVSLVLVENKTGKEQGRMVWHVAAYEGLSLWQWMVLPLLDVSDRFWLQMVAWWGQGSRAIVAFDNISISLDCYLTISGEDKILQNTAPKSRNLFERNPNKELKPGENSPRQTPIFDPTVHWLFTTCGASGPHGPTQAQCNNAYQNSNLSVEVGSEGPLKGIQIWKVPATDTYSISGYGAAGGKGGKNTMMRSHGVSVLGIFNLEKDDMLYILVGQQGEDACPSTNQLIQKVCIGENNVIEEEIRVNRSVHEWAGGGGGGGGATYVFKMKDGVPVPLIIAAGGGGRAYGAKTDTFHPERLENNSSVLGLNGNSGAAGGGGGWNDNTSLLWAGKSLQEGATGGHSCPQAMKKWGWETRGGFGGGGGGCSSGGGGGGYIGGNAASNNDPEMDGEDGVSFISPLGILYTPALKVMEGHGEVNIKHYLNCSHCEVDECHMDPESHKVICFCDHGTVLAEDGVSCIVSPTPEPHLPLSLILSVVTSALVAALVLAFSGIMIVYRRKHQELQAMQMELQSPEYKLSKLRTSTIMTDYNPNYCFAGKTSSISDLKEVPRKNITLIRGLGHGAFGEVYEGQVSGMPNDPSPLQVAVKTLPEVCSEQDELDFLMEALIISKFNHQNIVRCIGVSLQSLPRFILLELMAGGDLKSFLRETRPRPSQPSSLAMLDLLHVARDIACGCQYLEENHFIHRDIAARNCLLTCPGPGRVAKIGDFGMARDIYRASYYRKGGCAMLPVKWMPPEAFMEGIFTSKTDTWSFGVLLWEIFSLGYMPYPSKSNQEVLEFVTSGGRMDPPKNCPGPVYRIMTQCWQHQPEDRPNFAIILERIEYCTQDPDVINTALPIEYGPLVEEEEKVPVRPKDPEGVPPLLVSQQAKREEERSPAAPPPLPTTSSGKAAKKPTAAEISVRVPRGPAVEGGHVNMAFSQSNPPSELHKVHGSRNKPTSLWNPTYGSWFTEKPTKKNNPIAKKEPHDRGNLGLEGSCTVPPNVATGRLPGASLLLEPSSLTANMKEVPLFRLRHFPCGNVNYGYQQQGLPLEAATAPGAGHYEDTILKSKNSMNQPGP

Target: ALK (UniProt Q9UM73)
Test: kinase-Nluc reporter destabilization hit call (1 = scored as downregulated) (binary); higher = compound decreases kinase abundance
Conditions: K562; 2-18 h

kinase-Nluc reporter destabilization hit call, inactive:
COc1cc2nccc(Oc3ccc(NC(=O)NC4CC4)c(Cl)c3)c2cc1C(N)=O [Lenvatinib] (10 µM) 0
COc1ccc2c(OCc3nnc4ccc(-c5ccccc5)nn34)ccnc2c1 (2 µM) 0
COc1cc2ncnc(Nc3ccc(Cl)cc3F)c2cc1OC (10 µM) 0
N#Cc1c(C2CCNCC2)cc(-c2c(O)cccc2OCC2CC2)nc1N [ACHP (Hydrochloride)] (10 µM) 0
CNC(=O)c1c(F)cccc1Nc1nc(Nc2cc3c(cc2OC)CCN3C(=O)CN(C)C)nc2[nH]ccc12 (10 µM) 0
COc1cc2c(N3CCN(C(=O)Nc4ccc(OC(C)C)cc4)CC3)ncnc2cc1OCCCN1CCCCC1 [Tandutinib (hydrochloride)] (10 µM) 0
CN1CCN(c2cccc(Nc3nc4c(-c5ccc(S(C)(=O)=O)cc5)cccn4n3)c2)CC1 (10 µM) 0
Cn1cc(-c2ccc3c(c2)CCN3C(=O)Cc2cccc(C(F)(F)F)c2)c2c(N)ncnc21 (2.5 µM) 0
O=Nc1c(-c2c(O)[nH]c3ccc(F)cc23)[nH]c2ccccc12 [5'-Fluoroindirubinoxime] (10 µM) 0
C=C(CC[C@@H](C(=O)O)[C@H]1[C@H](O)C[C@@]2(C)C3=C(CC[C@]12C)[C@@]1(C)CC[C@H](OC(C)=O)C(C)(C)[C@@H]1CC3)C(C)C [Pachymic acid] (10 µM) 0
Cc1cc(Nc2ncnc3ccc(NC4=NC(C)(C)CO4)cc23)ccc1Oc1ccn2ncnc2c1 [Tucatinib] (2.5 µM) 0
CCNc1nc(Nc2cc(F)c(C(=O)N3CCOCC3)cc2OC)ncc1C(F)(F)F [GNE-7915 (tosylate)] (10 µM) 0
Cc1ccc(C(=O)Nc2ccc(Oc3cc4cnn(C)c4cc3-c3cn[nH]c3)c(F)c2)c(=O)n1-c1ccc(F)cc1 [Merestinib dihydrochloride] (2.5 µM) 0
Nc1ncnc2c1c(-c1cccc(OCc3ccccc3)c1)cn2C1CC(CN2CCC2)C1 (stereo not drawn) (2.5 µM) 0
Cn1cnc2c(F)c(Nc3ccc(Br)cc3Cl)c(C(=O)NOCCO)cc21 [Selumetinib (sulfate)] (10 µM) 0
Cc1cc(Nc2ncnc3ccc(NC4=NC(C)(C)CO4)cc23)ccc1Oc1ccn2ncnc2c1 [Tucatinib (hemiethanolate)] (2.5 µM) 0
Cc1cc2ncc(-c3ccc(O)c(O)c3)nc2cc1C [Tyrphostin AG1433] (10 µM) 0
CCN1CCN(Cc2ccc(Nc3ncc(F)c(-c4cc(F)c5nc(C)n(C(C)C)c5c4)n3)nc2)CC1 [Abemaciclib (methanesulfonate)] (10 µM) 0
Cn1cnc2c(F)c(Nc3ccc(Br)cc3Cl)c(C(=O)NOCCO)cc21 [Selumetinib] (10 µM) 0
S=C(SSC(=S)N1CCOCC1)N1CCOCC1 (10 µM) 0
Cn1nccc1Nc1nccc(-c2ccn([C@H](CO)c3ccc(Cl)c(F)c3)c(=O)c2)n1 [Ravoxertinib hydrochloride] (10 µM) 0
Cc1ccc(C(=O)Nc2ccc(Oc3cc4cnn(C)c4cc3-c3cn[nH]c3)c(F)c2)c(=O)n1-c1ccc(F)cc1 [Merestinib] (2.5 µM) 0
c1ccc(-c2[nH]ncc2-c2ccnc3ccccc23)nc1 (10 µM) 0
O=C(CSC1=NCCN1)NC1CCCCCC1 [ICCB-19 (hydrochloride)] (2.5 µM) 0
Cn1cc(-c2cnn3c(N)c(Br)c([C@@H]4CCCNC4)nc23)cn1 (2.5 µM) 0
O=C(Nc1cn[nH]c1-c1ccccn1)c1nn(C2CCNCC2)cc1Cl (10 µM) 0
Cc1nc(-c2cn3c(n2)-c2ccc(-c4cnn(C(C)(C)C(N)=O)c4)cc2OCC3)n(C(C)C)n1 [Taselisib] (10 µM) 0
O=C(NCCN1CCOCC1)c1cc2c(Oc3ccc(NC(=O)C4(C(=O)Nc5ccc(F)cc5)CC4)cc3)ccnc2[nH]1 [Tyrosine kinase inhibitor] (10 µM) 0
CN(CC(=O)N(Cc1ccc(C2CCCCC2)cc1)c1ccc(C(=O)NO)cc1)S(=O)(=O)c1c(F)c(F)c(F)c(F)c1F (2.5 µM) 0
Cc1c(-c2c(F)cc(C(N)=O)c3[nH]c4c(c23)CC[C@H](C(C)(C)O)C4)cccc1-n1c(=O)c2cccc(F)c2n(C)c1=O (2.5 µM) 0
c1cncc(CN2CCC(n3ncc4c(N5CCOCC5)nc(-c5ccc6[nH]ccc6c5)nc43)CC2)c1 (10 µM) 0
Cc1cccc(-c2[nH]ncc2-c2ccc(F)c(-c3cnn(CCO)c3)c2)n1 (10 µM) 0
COc1cc2nccc(Oc3ccc(NC(=O)NC4CC4)c(Cl)c3)c2cc1C(N)=O [Lenvatinib (mesylate)] (10 µM) 0
COc1cc2c(N3CCN(C(=O)Nc4ccc(OC(C)C)cc4)CC3)ncnc2cc1OCCCN1CCCCC1 [Tandutinib] (10 µM) 0
COc1cccc(OC)c1C(=O)OCc1cc(O)ccc1O[C@@H]1O[C@H](CO)[C@@H](O)[C@H](O)[C@H]1O [Curculigoside] (10 µM) 0
CNC(=O)c1ccc(C)c(-n2c(C)cc(OCc3ccc(F)cc3F)c(Br)c2=O)c1 (10 µM) 0
C=CC(=O)Nc1cc(C)ccc1Nc1nc(Nc2cc(OC)ncc2C)ncc1C(F)(F)F (10 µM) 0
CC(=O)NC1CC(n2cnc(NC(=O)Cc3ccc4ccccc4c3)c2)C1 (stereo not drawn) (10 µM) 0

Quoted from the results shown (2 entries):
kinase-Nluc reporter destabilization hit call, inactive:
C=C(CC[C@@H](C(=O)O)[C@H]1[C@H](O)C[C@@]2(C)C3=C(CC[C@]12C)[C@@]1(C)CC[C@H](OC(C)=O)C(C)(C)[C@@H]1CC3)C(C)C [Pachymic acid] (10 µM) 0
Cc1cc(Nc2ncnc3ccc(NC4=NC(C)(C)CO4)cc23)ccc1Oc1ccn2ncnc2c1 [Tucatinib] (2.5 µM) 0
